The results in this text go back to PMC6755085, “Cyclic oligoadenylate signalling mediates Mycobacterium tuberculosis CRISPR defence” (Nucleic Acids Research, 2019).

Amino acid sequences for entries named in this document (tags omitted).
UniProt P9WJF6, whole entry: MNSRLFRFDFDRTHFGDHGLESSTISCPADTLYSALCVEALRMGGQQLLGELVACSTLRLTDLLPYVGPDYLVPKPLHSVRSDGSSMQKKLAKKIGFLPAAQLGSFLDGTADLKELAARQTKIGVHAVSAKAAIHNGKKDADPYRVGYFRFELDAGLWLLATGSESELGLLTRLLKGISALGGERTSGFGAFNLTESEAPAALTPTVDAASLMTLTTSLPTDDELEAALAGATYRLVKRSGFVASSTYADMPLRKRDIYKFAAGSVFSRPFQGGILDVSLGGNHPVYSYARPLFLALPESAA
UniProt P9WJF4, whole entry: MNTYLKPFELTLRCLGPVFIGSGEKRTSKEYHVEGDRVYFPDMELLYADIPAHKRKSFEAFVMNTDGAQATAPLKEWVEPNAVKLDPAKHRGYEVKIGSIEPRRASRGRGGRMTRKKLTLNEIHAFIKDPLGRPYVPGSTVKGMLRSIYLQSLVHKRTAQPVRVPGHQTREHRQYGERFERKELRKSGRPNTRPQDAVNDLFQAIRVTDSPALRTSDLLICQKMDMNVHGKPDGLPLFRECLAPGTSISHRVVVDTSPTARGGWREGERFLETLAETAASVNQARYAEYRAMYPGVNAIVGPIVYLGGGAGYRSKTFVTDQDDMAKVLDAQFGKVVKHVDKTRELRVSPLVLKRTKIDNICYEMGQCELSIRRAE

The assay addresses Mycobacterium tuberculosis Csm4 (Cas5), His8-V5-tagged (Mycobacterium tuberculosis) (UniProt P9WJF6). As to the kind of experiment: pull-down.

No constants are given. Whether binding was seen depends on the method and setting. In cells and extracts the contact can be indirect. Some binding calls cover weakened binding; strength is not graded here.

For “Mycobacterium tuberculosis Csm5 (from UniProt P9WJF4 1-375)”, the binding result is on record as “binds”.
